No constants are given. Whether binding was seen depends on the method and setting. Binding seen in cells or lysates may run through a third protein. These calls come from enrichment with a bait or labelling near it, and not all partners need be listed. No binding means not detected with the bait. Each block holds one molecule with its values, some of them ahead of it.
Target: Strep-tagged full-length nibrin (NBN) (human) (UniProt O60934)
Test: affinity purification with mass spectrometry; Strep-tagged bait transiently expressed in HEK293 cells, untreated (K) or lysed 30 min after 2 Gy of X-rays (RX); lysate (20 mM Tris-HCl pH 8.0, 137 mM NaCl, 10% glycerol, 1% NP-40, 10 mM EDTA) on Strep-Tactin Sepharose, eluted with 2.5 mM desthiobiotin; SDS-PAGE slices, trypsin, MALDI-TOF/TOF or nano-LC-ESI-IT MS/MS; empty vector as control

Amino acid sequences for entries named in this document (tags omitted).
UniProt O60934: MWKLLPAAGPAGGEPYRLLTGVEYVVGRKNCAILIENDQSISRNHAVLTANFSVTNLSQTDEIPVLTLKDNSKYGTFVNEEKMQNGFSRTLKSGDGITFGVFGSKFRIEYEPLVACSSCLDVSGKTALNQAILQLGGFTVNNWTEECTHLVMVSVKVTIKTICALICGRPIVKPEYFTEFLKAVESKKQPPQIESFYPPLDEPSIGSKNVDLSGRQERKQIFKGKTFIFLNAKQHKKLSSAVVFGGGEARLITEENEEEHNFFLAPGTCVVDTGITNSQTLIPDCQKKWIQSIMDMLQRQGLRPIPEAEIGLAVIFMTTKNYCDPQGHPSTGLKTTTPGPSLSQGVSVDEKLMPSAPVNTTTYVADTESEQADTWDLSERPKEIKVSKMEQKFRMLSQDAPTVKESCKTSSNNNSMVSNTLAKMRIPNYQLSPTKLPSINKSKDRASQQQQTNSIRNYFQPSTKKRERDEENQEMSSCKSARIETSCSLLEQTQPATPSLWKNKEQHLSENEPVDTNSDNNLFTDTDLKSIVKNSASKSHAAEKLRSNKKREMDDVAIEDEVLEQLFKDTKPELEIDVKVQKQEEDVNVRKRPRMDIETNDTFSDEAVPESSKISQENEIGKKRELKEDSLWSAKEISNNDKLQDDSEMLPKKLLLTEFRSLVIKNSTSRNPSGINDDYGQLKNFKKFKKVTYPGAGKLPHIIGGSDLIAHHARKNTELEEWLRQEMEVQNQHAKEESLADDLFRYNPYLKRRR
UniProt P08238: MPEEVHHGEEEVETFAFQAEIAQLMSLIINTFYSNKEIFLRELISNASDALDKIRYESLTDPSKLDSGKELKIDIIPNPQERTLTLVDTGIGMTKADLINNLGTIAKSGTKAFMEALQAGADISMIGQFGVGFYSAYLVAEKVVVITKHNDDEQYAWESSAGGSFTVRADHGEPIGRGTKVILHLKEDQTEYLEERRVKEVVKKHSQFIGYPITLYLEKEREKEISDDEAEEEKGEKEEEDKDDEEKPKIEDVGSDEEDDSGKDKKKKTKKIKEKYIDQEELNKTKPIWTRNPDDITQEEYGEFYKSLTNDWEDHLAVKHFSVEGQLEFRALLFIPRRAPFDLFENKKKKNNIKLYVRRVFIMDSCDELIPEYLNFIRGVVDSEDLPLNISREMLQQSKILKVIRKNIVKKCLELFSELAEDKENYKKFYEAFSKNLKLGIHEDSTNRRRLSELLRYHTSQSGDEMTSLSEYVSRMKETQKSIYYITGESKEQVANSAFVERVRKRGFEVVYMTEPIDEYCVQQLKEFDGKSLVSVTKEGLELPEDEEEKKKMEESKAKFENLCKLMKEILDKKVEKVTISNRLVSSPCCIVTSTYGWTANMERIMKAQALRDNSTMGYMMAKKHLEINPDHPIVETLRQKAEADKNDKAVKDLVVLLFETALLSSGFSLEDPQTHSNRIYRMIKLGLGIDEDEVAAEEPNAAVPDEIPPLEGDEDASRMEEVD
UniProt P00441: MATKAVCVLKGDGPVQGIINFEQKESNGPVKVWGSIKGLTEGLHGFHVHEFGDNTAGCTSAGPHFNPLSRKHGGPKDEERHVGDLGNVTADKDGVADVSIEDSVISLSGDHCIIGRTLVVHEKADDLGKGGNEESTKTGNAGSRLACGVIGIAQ
UniProt P68104: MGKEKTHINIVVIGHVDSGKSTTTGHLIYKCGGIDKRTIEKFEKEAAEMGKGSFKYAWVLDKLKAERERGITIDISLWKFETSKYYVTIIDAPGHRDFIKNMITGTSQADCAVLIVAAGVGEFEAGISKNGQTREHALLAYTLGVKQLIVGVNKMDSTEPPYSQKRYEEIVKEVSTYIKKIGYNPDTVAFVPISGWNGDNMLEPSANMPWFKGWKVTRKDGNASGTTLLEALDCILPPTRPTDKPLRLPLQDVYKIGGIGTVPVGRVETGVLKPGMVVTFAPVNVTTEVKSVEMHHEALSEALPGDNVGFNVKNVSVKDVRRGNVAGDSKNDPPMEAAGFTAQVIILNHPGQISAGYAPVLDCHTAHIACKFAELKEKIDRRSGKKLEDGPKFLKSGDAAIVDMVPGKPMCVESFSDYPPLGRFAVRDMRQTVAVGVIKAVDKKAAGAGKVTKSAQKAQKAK
UniProt P04406: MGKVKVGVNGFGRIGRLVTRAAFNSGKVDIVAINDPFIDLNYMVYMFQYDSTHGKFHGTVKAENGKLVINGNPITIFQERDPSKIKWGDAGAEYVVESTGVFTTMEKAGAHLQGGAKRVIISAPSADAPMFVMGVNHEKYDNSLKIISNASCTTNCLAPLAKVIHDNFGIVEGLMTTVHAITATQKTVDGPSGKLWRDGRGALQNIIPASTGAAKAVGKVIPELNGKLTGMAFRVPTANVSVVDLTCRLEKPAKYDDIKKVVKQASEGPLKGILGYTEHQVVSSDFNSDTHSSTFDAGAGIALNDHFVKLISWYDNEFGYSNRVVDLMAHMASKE
UniProt P11142: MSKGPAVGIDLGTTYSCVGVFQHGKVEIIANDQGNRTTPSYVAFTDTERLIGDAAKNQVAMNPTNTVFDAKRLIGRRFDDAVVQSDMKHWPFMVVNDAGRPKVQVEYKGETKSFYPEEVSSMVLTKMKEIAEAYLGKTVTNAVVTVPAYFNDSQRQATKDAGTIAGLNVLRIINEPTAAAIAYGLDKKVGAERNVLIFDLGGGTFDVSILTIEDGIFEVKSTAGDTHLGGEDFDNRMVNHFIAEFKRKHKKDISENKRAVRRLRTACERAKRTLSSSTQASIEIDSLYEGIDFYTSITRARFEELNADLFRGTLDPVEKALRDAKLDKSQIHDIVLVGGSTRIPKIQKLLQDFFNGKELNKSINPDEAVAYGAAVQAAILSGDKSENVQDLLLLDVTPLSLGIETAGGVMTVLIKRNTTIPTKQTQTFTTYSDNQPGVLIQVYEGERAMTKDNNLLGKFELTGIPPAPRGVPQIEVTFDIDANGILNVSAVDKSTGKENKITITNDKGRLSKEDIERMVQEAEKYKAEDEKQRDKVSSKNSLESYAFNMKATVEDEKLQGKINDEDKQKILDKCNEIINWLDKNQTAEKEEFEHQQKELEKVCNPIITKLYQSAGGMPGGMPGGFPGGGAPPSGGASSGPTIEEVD
UniProt P06733: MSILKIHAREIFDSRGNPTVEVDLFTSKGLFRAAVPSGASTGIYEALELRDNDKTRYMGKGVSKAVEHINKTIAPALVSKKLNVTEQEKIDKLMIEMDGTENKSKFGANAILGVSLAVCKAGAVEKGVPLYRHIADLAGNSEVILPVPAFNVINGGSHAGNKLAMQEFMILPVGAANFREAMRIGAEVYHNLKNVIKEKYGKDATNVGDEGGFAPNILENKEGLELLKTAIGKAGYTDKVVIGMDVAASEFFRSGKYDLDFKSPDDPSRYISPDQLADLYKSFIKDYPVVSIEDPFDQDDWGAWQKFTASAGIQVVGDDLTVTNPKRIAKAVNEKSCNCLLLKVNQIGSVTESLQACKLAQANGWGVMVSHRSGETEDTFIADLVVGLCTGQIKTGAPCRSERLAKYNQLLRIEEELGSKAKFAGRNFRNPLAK
UniProt P12277: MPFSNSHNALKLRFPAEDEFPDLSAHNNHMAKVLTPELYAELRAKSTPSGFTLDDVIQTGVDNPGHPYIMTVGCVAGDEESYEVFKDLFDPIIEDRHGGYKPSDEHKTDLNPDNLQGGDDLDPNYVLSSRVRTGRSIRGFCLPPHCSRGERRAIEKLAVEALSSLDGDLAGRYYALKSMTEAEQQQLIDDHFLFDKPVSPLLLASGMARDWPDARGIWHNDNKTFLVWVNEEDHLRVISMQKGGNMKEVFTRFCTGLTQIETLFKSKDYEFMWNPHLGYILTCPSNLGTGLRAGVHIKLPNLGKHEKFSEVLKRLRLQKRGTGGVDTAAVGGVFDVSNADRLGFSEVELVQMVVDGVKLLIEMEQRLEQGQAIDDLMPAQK
UniProt Q14240: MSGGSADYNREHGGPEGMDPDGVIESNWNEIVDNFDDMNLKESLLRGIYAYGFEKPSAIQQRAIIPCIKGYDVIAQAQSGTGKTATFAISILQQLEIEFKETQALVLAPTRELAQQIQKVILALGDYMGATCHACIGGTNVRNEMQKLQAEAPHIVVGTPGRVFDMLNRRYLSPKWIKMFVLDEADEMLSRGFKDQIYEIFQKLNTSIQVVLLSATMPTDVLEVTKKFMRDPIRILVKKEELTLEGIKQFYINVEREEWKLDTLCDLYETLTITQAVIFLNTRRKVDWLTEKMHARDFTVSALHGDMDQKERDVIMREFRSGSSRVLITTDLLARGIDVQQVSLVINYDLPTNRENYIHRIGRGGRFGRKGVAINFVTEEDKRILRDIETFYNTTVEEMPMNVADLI
UniProt P0DMV8: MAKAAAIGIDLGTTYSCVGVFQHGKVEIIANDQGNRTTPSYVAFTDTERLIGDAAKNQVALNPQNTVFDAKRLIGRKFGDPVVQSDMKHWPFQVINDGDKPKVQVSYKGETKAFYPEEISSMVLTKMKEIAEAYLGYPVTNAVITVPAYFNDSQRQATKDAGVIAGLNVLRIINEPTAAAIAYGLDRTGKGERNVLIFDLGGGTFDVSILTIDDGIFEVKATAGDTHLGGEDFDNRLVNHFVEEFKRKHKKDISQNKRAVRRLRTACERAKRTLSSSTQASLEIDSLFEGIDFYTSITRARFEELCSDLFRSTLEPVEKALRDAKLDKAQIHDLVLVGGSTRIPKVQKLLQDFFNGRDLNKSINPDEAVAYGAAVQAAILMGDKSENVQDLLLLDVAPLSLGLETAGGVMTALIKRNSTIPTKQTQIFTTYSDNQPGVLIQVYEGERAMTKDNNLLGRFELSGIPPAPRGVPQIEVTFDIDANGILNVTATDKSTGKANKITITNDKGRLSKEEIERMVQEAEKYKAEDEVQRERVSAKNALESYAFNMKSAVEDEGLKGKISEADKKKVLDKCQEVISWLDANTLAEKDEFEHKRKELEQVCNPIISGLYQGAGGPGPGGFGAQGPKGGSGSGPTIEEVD
UniProt P07864: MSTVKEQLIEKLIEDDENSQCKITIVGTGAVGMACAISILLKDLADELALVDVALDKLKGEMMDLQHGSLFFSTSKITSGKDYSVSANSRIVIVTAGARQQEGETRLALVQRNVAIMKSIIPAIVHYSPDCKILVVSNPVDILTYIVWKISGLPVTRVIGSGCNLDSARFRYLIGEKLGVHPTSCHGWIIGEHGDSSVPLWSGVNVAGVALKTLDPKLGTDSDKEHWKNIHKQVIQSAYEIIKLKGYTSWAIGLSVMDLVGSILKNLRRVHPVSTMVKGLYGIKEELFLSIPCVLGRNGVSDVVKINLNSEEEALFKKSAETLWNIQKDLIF

Molecule: 90kDa heat shock protein (from UniProt P08238 1-724)
binding: no binding

Molecule: Calreticulin = calcium binding protein (from UniProt P27797 18-417)
binding: binds

Molecule: Cu/Zn-superoxide dismutase (from UniProt P00441 1-154)
binding: binds

Molecule: Elongation factor 1-alpha 1 (from UniProt P68104 1-462)
binding: binds

Molecule: Glyceraldehyde-3-phosphate dehydrogenase (from UniProt P04406 1-335)
binding: no binding

Molecule: Heat shock cognate 71 kDa protein isoform 1 (from UniProt P11142 1-646)
binding: binds

B1: Aldolase A (protein, UniProt P04075 1-364)
chain: MPYQYPALTPEQKKELSDIAHRIVAPGKGILAADESTGSIAKRLQSIGTENTEENRRFYRQLLLTADDRVNPCIGGVILFHETLYQKADDGRPFPQVIKSKGGVVGIKVDKGVVPLAGTNGETTTQGLDGLSERCAQYKKDGADFAKWRCVLKIGEHTPSALAIMENANVLARYASICQQNGIVPIVEPEILPDGDHDLKRCQYVTEKVLAAVYKALSDHHIYLEGTLLKPNMVTPGHACTQKFSHEEIAMATVTALRRTVPPAVTGITFLSGGQSEEEASINLNAINKCPLLKPWALTFSYGRALQASALKAWGGKKENLKAAQEEYVKRALANSLACQGKYTPSGQAGAAASESLFVSNHAY
binding: binds

B2: Tumor necrosis factor type 1 receptor associated protein TRAP-1 -human (protein, UniProt Q12931 60-704)
chain: STQTAEDKEEPLHSIISSTESVQGSTSKHEFQAETKKLLDIVARSLYSEKEVFIRELISNASDALEKLRHKLVSDGQALPEMEIHLQTNAEKGTITIQDTGIGMTQEELVSNLGTIARSGSKAFLDALQNQAEASSKIIGQFGVGFYSAFMVADRVEVYSRSAAPGSLGYQWLSDGSGVFEIAEASGVRTGTKIIIHLKSDCKEFSSEARVRDVVTKYSNFVSFPLYLNGRRMNTLQAIWMMDPKDVREWQHEEFYRYVAQAHDKPRYTLHYKTDAPLNIRSIFYVPDMKPSMFDVSRELGSSVALYSRKVLIQTKATDILPKWLRFIRGVVDSEDIPLNLSRELLQESALIRKLRDVLQQRLIKFFIDQSKKDAEKYAKFFEDYGLFMREGIVTATEQEVKEDIAKLLRYESSALPSGQLTSLSEYASRMRAGTRNIYYLCAPNRHLAEHSPYYEAMKKKDTEVLFCFEQFDELTLLHLREFDKKKLISVETDIVVDHYKEEKFEDRSPAAECLSEKETEELMAWMRNVLGSRVTNVKVTLRLDTHPAMVTVLEMGAARHFLRMQQLAKTQEERAQLLQPTLEINPRHALIKKLNQLRASEPGLAQLLVDQIYENAMIAAGLVDDPRAMVGRLNELLVKALERH
binding: binds

B3: Peroxiredoxin 1 (protein, UniProt Q06830 1-199)
chain: MSSGNAKIGHPAPNFKATAVMPDGQFKDISLSDYKGKYVVFFFYPLDFTFVCPTEIIAFSDRAEEFKKLNCQVIGASVDSHFCHLAWVNTPKKQGGLGPMNIPLVSDPKRTIAQDYGVLKADEGISFRGLFIIDDKGILRQITVNDLPVGRSVDETLRLVQAFQFTDKHGEVCPAGWKPGSDTIKPDVQKSKEYFSKQK
binding: binds

Continued, values first:

binding: binds
Molecule: 2-phosphopyruvate-hydratase alpha enolase (from UniProt P06733 1-434)

binding: binds
Molecule: ATP synthase subunit beta, mitochondrial precursor (from UniProt P06576 48-529)

binding: binds
Molecule: Creatine kinase B (from UniProt P12277 1-381)

binding: binds
Molecule: Eukaryotic initiation factor 4AII (from UniProt Q14240 1-407)

binding: no binding
Molecule: HSP70-2 (from UniProt P0DMV8 1-641)

binding: binds
Molecule: Hsp89-alpha-delta-N (from UniProt P07900 1-732)

binding: binds
Molecule: L-lactate dehydrogenase C chain (from UniProt P07864 1-332)
